Experiment [1] concerns the target T1, Tks5-BirA* (wild type Tks5α fused to the N-terminus of BirA*-HA) (UniProt Q5TCZ1).
T1 sequence: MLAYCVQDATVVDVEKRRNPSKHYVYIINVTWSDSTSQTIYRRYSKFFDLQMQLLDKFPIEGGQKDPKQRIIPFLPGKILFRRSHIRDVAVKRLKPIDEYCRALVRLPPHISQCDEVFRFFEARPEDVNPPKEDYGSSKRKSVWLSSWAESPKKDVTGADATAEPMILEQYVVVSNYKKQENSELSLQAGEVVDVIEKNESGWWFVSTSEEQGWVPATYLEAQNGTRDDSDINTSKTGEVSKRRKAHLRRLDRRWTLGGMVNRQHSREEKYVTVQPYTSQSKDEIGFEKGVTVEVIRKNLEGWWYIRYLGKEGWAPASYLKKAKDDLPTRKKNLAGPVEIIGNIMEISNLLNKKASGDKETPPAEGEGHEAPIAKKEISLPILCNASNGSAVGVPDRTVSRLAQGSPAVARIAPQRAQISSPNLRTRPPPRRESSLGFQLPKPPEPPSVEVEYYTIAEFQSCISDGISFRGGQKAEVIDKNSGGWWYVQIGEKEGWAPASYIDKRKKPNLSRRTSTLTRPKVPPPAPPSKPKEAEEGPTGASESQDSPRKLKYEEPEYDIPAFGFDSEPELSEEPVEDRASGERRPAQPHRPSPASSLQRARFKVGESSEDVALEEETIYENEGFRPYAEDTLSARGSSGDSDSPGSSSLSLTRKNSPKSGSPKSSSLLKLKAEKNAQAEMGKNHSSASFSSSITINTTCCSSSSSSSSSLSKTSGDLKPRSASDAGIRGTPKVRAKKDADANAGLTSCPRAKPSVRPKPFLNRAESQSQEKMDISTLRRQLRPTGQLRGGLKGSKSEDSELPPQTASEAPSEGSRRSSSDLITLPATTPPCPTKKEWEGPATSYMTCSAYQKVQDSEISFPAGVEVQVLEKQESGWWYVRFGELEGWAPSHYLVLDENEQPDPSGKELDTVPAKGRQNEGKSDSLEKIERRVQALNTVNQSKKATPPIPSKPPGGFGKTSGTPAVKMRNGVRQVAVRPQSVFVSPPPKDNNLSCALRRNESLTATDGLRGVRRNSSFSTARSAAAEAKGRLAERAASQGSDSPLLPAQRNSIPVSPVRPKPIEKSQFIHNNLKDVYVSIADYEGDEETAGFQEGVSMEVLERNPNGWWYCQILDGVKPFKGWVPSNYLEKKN
The experiment can be described thus: proximity labelling; BioID in living MDA-MB-231 cells stably expressing the BirA* fusion, seeded on gelatin, 50 uM biotin for 16 h; lysis (500 mM NaCl, 0.4% SDS, 2% Triton X-100); biotinylated proteins captured on avidin-coated beads; western blot with specific antibodies; also after knock-down of endogenous Tks5 (biotinylation unchanged). A general note: A western blot detects proteins with antibodies after separation by electrophoresis.

By UniProt entry, the sequences of proteins in these tests, tags left out. Where a name states a change or a piece, a line headed by the entry shows the natural chain unless it says otherwise.
UniProt P06709: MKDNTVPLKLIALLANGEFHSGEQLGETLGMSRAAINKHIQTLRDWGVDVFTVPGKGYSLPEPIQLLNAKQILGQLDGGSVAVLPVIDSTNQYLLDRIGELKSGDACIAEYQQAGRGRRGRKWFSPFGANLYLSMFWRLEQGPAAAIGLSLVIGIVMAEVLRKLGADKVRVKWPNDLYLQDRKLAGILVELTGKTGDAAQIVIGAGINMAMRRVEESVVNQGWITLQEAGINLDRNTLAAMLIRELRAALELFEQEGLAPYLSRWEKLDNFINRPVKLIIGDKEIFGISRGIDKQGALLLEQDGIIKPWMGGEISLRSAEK

Experiment [2] concerns the target ΔPX-Tks5-BirA* (Tks5α lacking its PX domain fused to the N-terminus of BirA*-HA). Described as above.
The target of experiment [3] is BirA* alone (BirA(R118G)-HA) (UniProt P06709). The experiment is described as above.
Experiment [4] concerns the target T1, Tks5-BirA* (wild type Tks5α fused to the N-terminus of BirA*-HA). Description: proximity labelling; BioID in living MDA-MB-231 cells stably expressing the BirA* fusion, seeded on gelatin, 50 uM biotin for 16 h; avidin-bead capture; LC-MS/MS with label-free quantification against the BirA* control pulldown, 1% permutation FDR.

Results are given in words; binding and its absence hold for the method and conditions named. Binding seen in cells or lysates may run through a third protein. These calls come from enrichment with a bait or labelling near it, and not all partners need be listed. For some of these results: A no says only that the protein was not detected with the bait. For some of these results: Where a sequence is shown, tags or fusion partners need not be part of it.

B1: Cdc42 guanine exchange factor FGD1 (protein, UniProt P98174 1-961)
chain: MHGHRAPGGAGPSEPEHPATNPPGAAPPACADSDPGASEPGLLARRGSGSALGGPLDPQFVGPSDTSLGAAPGHRVLPCGPSPQHHRALRFSYHLEGSQPRPGLHQGNRILVKSLSLDPGQSLEPHPEGPQRLRSDPGPPTETPSQRPSPLKRAPGPKPQVPPKPSYLQMPRMPPPLEPIPPPPSRPLPADPRVAKGLAPRAEASPSSAAVSSLIEKFEREPVIVASDRPVPGPSPGPPEPVMLPQPTSQPPVPQLPEGEASRCLFLLAPGPRDGEKVPNRDSGIDSISSPSNSEETCFVSDDGPPSHSLCPGPPALASVPVALADPHRPGSQEVDSDLEEEDDEEEEEEKDREIPVPLMERQESVELTVQQKVFHIANELLQTEKAYVSRLHLLDQVFCARLLEEARNRSSFPADVVHGIFSNICSIYCFHQQFLLPELEKRMEEWDRYPRIGDILQKLAPFLKMYGEYVKNFDRAVELVNTWTERSTQFKVIIHEVQKEEACGNLTLQHHMLEPVQRIPRYELLLKDYLLKLPHGSPDSKDAQKSLELIATAAEHSNAAIRKMERMHKLLKVYELLGGEEDIVSPTKELIKEGHILKLSAKNGTTQDRYLILFNDRLLYCVPRLRLLGQKFSVRARIDVDGMELKESSNLNLPRTFLVSGKQRSLELQARTEEEKKDWVQAINSTLLKHEQTLETFKLLNSTNREDEDTPPNSPNVDLGKRAPTPIREKEVTMCMRCQEPFNSITKRRHHCKACGHVVCGKCSEFRARLVYDNNRSNRVCTDCYVALHGVPGSSPACSQHTPQRRRSILEKQASVAAENSVICSFLHYMEKGGKGWHKAWFVVPENEPLVLYIYGAPQDVKAQRSLPLIGFEVGPPEAGERPDRRHVFKITQSHLSWYFSPETEELQRRWMAVLGRAGRGDTFCPGPTLSEDREMEEAPVAALGATAEPPESPQTRDKT
In the case of B1, the binding entry in experiment [1] was “binds”; in experiment [2], “no binding”; in experiment [3] it was “no binding”; in experiment [4], “binds”.

For the origin of these results see article PMC7176661.
